# Earlier results, collected in patent EP0261362A2, “Ubidecarenone as a keloid remedy” (Eisai Co., Ltd., priority 1986, dated 1988).
# Conditions: cited from earlier work
structure (smiles),measurement,setting,value
COC1=C(OC)C(=O)C(C/C=C(\C)CC/C=C(\C)CC/C=C(\C)CC/C=C(\C)CC/C=C(\C)CC/C=C(\C)CC/C=C(\C)CC/C=C(\C)CC/C=C(\C)CCC=C(C)C)=C(C)C1=O [ubidecarenone],solubility in methanol,methanol,hardly soluble
same,solubility in water,water,hardly soluble
